Values of other authors, collected in patent US20140309300A1, “Bicyclic Labdane Diterpenes for Use in the Treatment of TRPC6 Associated Diseases” (UNIVERSITAET LEIPZIG, priority 2011, published 2014).
At least one structure is not confirmed: it was looked up by name or label, or the drawing left a doubt.

Test system: pulmonary artery pressure
Conditions: described in the art; cited from earlier work

Structure (SMILES): C=C1C(=O)[C@]23[C@H](O)[C@H]1CC[C@H]2[C@@]12CO[C@]3(O)[C@@H](O)[C@@H]1C(C)(C)CC[C@@H]2O [oridonin]
- pulmonary artery pressure: lower pulmonary artery pressure effectively
